Results taken from paper doi:10.1101/2025.01.08.631631.
Results are given in words; binding and its absence hold for the method and conditions named. In cells and extracts the contact can be indirect. Some entries that bind do so weakly or less than the wild type.

Chains of the proteins cited; added tags and fusions are not shown.
UniProt P03427: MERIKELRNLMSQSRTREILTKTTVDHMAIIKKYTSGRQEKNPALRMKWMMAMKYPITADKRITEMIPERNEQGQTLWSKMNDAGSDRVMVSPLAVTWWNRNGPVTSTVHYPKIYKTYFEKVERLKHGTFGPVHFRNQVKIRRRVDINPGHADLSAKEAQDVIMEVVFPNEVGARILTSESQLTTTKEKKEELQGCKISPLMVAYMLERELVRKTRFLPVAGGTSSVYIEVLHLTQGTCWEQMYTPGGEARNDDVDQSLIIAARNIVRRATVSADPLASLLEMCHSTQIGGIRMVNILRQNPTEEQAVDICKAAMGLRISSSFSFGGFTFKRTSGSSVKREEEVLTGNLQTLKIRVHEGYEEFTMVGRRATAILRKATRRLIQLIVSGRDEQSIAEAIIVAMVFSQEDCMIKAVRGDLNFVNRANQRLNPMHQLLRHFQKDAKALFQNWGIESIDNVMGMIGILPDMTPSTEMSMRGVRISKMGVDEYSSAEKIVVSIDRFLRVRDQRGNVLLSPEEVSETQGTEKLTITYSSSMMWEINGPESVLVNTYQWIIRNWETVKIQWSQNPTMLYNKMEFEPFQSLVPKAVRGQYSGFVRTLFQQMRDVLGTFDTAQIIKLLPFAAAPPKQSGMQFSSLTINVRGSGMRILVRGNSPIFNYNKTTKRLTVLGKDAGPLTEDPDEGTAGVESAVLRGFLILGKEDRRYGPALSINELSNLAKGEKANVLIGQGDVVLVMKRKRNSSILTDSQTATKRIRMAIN
UniProt P15682: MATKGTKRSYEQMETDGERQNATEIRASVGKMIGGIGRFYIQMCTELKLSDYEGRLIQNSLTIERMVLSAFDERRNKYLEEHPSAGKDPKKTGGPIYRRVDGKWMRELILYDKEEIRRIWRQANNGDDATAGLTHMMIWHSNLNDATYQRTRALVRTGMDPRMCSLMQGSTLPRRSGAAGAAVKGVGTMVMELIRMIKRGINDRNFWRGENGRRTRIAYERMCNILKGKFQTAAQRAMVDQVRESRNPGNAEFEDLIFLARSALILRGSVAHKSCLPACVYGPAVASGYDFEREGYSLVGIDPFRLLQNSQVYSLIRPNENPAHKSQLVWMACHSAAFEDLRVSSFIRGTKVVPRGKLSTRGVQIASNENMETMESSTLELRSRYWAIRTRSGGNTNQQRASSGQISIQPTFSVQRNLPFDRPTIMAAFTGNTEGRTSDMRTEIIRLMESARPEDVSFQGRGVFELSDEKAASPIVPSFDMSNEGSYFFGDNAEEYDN

Target: PB2 carrying a strep-tag (WSN PB2-strep), RdRp subunit of influenza A/WSN/1933(H1N1) (influenza A virus A/WSN/1933(H1N1)) (UniProt P03427)
Test: pull-down

NP (nucleoprotein) of influenza A/WSN/1933(H1N1) (from UniProt P15682 1-498)
binding: binds
